# In all, about 390,000 compounds went through this assay and about 610 (0.16%) were called active. Inconclusive means that the source gave no clear call. Such entries were picked first, then a sample of the others. Calls follow the shape of the dose curve; as a rule, active = well fitted inhibition curve with a large enough effect; inconclusive = small, poorly fitted or top-dose-only effect, or effect the other way, or another doubt; inactive = no such curve, though single readings can be large or run the other way. Potencies beside an inconclusive call are fits to weak or partial responses and may not hold up.
# Experiment: Nrf2 qHTS screen for inhibitors: counterscreen for cytotoxicity
# Conditions: A549 ARE-Fluc cells, CellTiter-Fluor viability, 18-24 h; activity change, negative = cytotoxicity: at 46 µM (top of the series)
# Summary of the method: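 A549 ARE-Fluc cells in 5% FBS OPTI-MEM, 5000 cells/well, rested 2 h then exposed to compounds in concentration-response for 18-24 h at 37 °C. Viability by CellTiter-Fluor fluorescence (Ex 405/Em 525) after 30 min; luciferase luminescence (BugLite, 15 min, RT) read afterwards.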
# % is scaled to controls: 0 for no effect and ±100 for the full control effect; potency is read from the fitted curve at half-maximal effect.
SMILES,Potency,"activity change, negative = cytotoxicity"
CCCNC(=O)COc1ccc(S(=O)(=O)Nc2ccc(C)cc2)cc1,"inconclusive: 10.3 µM [activator, partial curve, poor fit]",
Cc1cc(S(=O)(=O)N2CCCC2)ccc1OCC(=O)NCc1ccco1,,inactive: 2.31%
c1ccc(-c2c(-c3ccccc3)n(Cc3ccco3)c3ncnc(NCCCn4ccnc4)c23)cc1,"inconclusive: 29.1 µM [falling, single point]",
COCCn1c(N)c(C(=O)NCC2CCCO2)c2nc3ccccc3nc21 (stereo unspecified),"inconclusive: 18.4 µM [activator, single point]",
Cc1cccc(Nc2cc(C)nc3ccccc23)c1,"inconclusive: 18.4 µM [falling, single point]",
FC(F)Oc1ccc(NC(=S)NCc2ccccc2)cc1Cl,"inconclusive: 29.1 µM [falling, single point]",
CCOc1cccc(/C=N/NC(=O)c2cc(-c3cccn3C)n[nH]2)c1O,"inconclusive: 23.1 µM [activator, partial curve, poor fit]",
Nc1nc(N)c(S(=O)(=O)c2ccccc2)c(Nc2ccc(F)cc2)n1,,inactive: -1.13%
Cc1cccc(/C=C/C(=O)c2ccc([N+](=O)[O-])o2)c1,"inconclusive: 29.1 µM [falling, single point]",
COc1ccccc1NS(=O)(=O)c1cc(NC(=O)c2ccc(Cl)nc2)ccc1Cl,"inconclusive: 32.6 µM [falling, partial curve, poor fit]",
COc1ccc(C(C#N)=C2C=CC(=NO)C(C)=C2Cl)cc1,"inconclusive: 0.103 µM [activator, partial curve, poor fit]",
O=C(O)/C=C/C(=O)NNc1ccc([N+](=O)[O-])cc1,"inconclusive: 20.6 µM [falling, single point]",
CCn1c(SCC(=O)Nc2nc(-c3ccc(C)cc3)cs2)nnc1-c1ccccc1O,"inconclusive: 32.6 µM [falling, single point]",
CCc1cccc(NC(=O)CN(C)C2=NS(=O)(=O)c3ccccc32)c1,,inactive: 0.262%
COc1ccc(/C=N/Nc2nc(-c3ccc(Cl)cc3)cc(C(F)(F)F)n2)cc1OC,,inactive: -2.1%
CC(=O)N(C1CC(C)C(C#N)(C#N)C1(C#N)C#N)N(C)C (stereo unspecified),"inconclusive: 29.1 µM [falling, single point]",
CN(C)CCN(C)Cc1c2ccccc2c(CN(C)CCN(C)C)c2ccccc12,"inconclusive: 20.6 µM [falling, single point]",
O=C(Nc1ncc2c(n1)CC(c1ccccc1)CC2=O)c1ccco1 (stereo unspecified),,inactive: 2.2%
NS(=O)(=O)c1ccc(N2N=C(c3ccccc3)CC2c2ccccc2Cl)cc1 (stereo unspecified),"inconclusive: 29.1 µM [falling, single point]",
COc1ccc(-c2nc(S(=O)(=O)c3ccc(C)cc3)c(NCc3ccccc3)o2)cc1,,inactive: -0.142%
CCOc1ccccc1N1CCN(C(=O)c2ccc3[nH]c4c(c3c2)CCCC4)CC1,"inconclusive: 14.6 µM [falling, single point]",
O=C(CCNC(=O)c1ccccc1Cl)Nc1ccc(Cl)c(C(F)(F)F)c1,"inconclusive: 3.66 µM [activator, single point]",

# A section taken from the entries so far, for reference:
SMILES,Potency,"activity change, negative = cytotoxicity"
COc1ccc(C(C#N)=C2C=CC(=NO)C(C)=C2Cl)cc1,"inconclusive: 0.103 µM [activator, partial curve, poor fit]",
O=C(O)/C=C/C(=O)NNc1ccc([N+](=O)[O-])cc1,"inconclusive: 20.6 µM [falling, single point]",
CCn1c(SCC(=O)Nc2nc(-c3ccc(C)cc3)cs2)nnc1-c1ccccc1O,"inconclusive: 32.6 µM [falling, single point]",

# 2 entries picked at random from those above:
SMILES,Potency,"activity change, negative = cytotoxicity"
Cc1cc(S(=O)(=O)N2CCCC2)ccc1OCC(=O)NCc1ccco1,,inactive: 2.31%
CC(=O)N(C1CC(C)C(C#N)(C#N)C1(C#N)C#N)N(C)C (stereo unspecified),"inconclusive: 29.1 µM [falling, single point]",

# Next part

SMILES,Potency,"activity change, negative = cytotoxicity"
O=C(NCCCN1CCN(c2ccc(F)cc2)CC1)c1ccc2nc(CCc3ccccc3)oc2c1,"inconclusive: 32.6 µM [falling, partial curve, poor fit]",
CCCNC(=O)Cn1cnc2sc(C(=O)NCCN(CC)CC)c(C)c2c1=O,"inconclusive: 20.6 µM [activator, partial curve, poor fit]",
N#Cc1ccccc1NC1=CC(=O)CCC1,,inactive: -0.447%
Cc1ccc(C)c(S(=O)(=O)c2nnn3c2nc(N2CCCCC2)c2sccc23)c1,,inactive: -0.598%
Cc1ccc(-n2c(SCC(=O)O)nc3c(sc(=S)n3-c3ccc(C)c(C)c3)c2=O)cc1,,inactive: -8.75%
COc1ccc(C)cc1S(=O)(=O)N1c2ccccc2CC1C (stereo unspecified),"inconclusive: 25.9 µM [falling, single point]",
NC(=O)CC(NC(=O)Cc1ccc(Br)cc1)c1ccc(NCc2ccc(F)c(F)c2)c([N+](=O)[O-])c1 (stereo unspecified),"inconclusive: 13 µM [falling, partial curve, poor fit]",
Cc1cccn2c(=O)c(C=C(C#N)C#N)c(N3CCN(C)CC3)nc12,"inconclusive: 20.6 µM [falling, single point]",
NC(=O)CC(NC(=O)Cc1ccc(Br)cc1)c1ccc(NC2CCCCCCC2)c([N+](=O)[O-])c1 (stereo unspecified),"inconclusive: 29.1 µM [falling, single point]",
Cc1cc(OCC(=O)Nc2ccccn2)c2c(C)c(C)c(=O)oc2c1,"inconclusive: 25.9 µM [falling, partial curve, poor fit]",
CCCCCc1nnc(NC(=O)Cc2cccs2)s1,"inconclusive: 7.31 µM [activator, single point]",
Cc1ccc(-n2nnc3c(=O)n(CC(=O)OCc4ccccc4)cnc32)cc1,"inconclusive: 29.1 µM [falling, single point]",
COCCn1c(-c2ccc(OC)cc2)cnc1N,"inconclusive: 0.58 µM [activator, full curve, poor fit]",
Cc1cccc2cc(CN(Cc3nnnn3C3CCCC3)C3CCCCC3)c(=O)[nH]c12,"inconclusive: 20.6 µM [falling, single point]",
CCc1ccc(NC(=O)CC2C(=O)N(c3ccc(Cl)cc3)C(=O)N2C2CCCC2)cc1 (stereo unspecified),"inconclusive: 25.9 µM [falling, partial curve, poor fit]",
Fc1cccc(Nc2nc(Cl)nc(Cl)n2)c1,"inconclusive: 20.6 µM [activator, partial curve, poor fit]",
Cc1ccc(C(=O)NN2C(=O)/C(=C/c3cccn3C)SC2=S)cc1,"inconclusive: 29.1 µM [falling, single point]",
Cc1ccc(NS(=O)(=O)c2cccs2)cc1S(=O)(=O)N1CCCCCC1,"inconclusive: 8.2 µM [falling, partial curve, poor fit]",
O=c1oc2ccc(Br)cc2cc1-c1nc2ccccc2o1,"inconclusive: 6.51 µM [activator, single point]",
NC(=O)c1ccc2nc(NC(=O)c3ccc(N)cc3)sc2c1,,inactive: -6.94%
O=S(=O)(Nc1nc2n(n1)C(c1ccccc1)C=C(c1ccc(Cl)cc1)N2)c1ccccc1 (stereo unspecified),"inconclusive: 18.4 µM [activator, partial curve, poor fit]",
C=CCN1C(=O)/C(=C\C=C2\N(C)c3ccccc3C2(C)C)SC1=S,"inconclusive: 3.66 µM [falling, full curve]",

SMILES,Potency,"activity change, negative = cytotoxicity"
COCCn1nnnc1C(c1cccc(C#N)c1)N1CCCCCC1 (stereo unspecified),"inconclusive: 4.61 µM [activator, single point]",
Cc1ccc(-c2nnc(Nc3ccc4c(c3)nc(C)n4C)c3ccccc23)cc1,"inconclusive: 23.1 µM [falling, single point]",
O=C(C1CC1)N1CCN(c2ccc([N+](=O)[O-])cc2)CC1,"inconclusive: 6.51 µM [falling, partial curve, poor fit]",
CCCOC(=O)/C(C(N)=NCc1ccccc1)=C(\O)OCCC,"inconclusive: 25.9 µM [falling, single point]",
CC(=O)Nc1cc(O)c2nonc2c1O,active: 6.51 µM,
Cc1ccc(C(=O)NC(=C(Cl)Cl)S(=O)(=O)c2ccc(Cl)cc2)cc1,"inconclusive: 18.4 µM [falling, single point]",
CCCC(=O)NC(c1ccc(N(C)C)cc1)c1ccc2cccnc2c1O (stereo unspecified),,inactive: -8.5%
Cc1ccc(OCC(=O)Nc2ccc3nc(SCC(=O)N4CCCC4)sc3c2)cc1C,,inactive: -20.1%
C=CCn1c(SCC(=O)NCc2ccc3c(c2)OCO3)nc2scc(-c3ccc(F)cc3)c2c1=O,,inactive: -6.15%
Cc1ccc(-n2c(C)cc(/C=N/NC(=O)c3ccncc3)c2C)c(C)c1,"inconclusive: 29.1 µM [falling, partial curve, poor fit]",
N#CC1=C(N)C(C#N)(C#N)[C@H](c2ccoc2)[C@H]2CN(Cc3ccccc3)CC=C12,"inconclusive: 6.51 µM [falling, full curve]",
O=C(NCCNc1ccc([N+](=O)[O-])cc1C(F)(F)F)c1ccc(F)cc1,"inconclusive: 16.4 µM [falling, single point]",
c1ccc(Nc2nc(-c3ccccc3)c(-c3ccccc3)s2)cc1,,inactive: -5.56%
COCCCn1c(=N)c(C(=O)NC2CCCC2)cc2c(=O)n3ccccc3nc21,"inconclusive: 9.2 µM [activator, partial curve]",
CCCSc1cc(NCCOC(=O)CCC)c([N+](=O)[O-])c2nonc12,"inconclusive: 23.1 µM [falling, partial curve, poor fit]",
Cc1ccc(S(=O)(=O)c2nnn3c2nc(Nc2ccc(C(C)C)cc2)c2sccc23)cc1C,,inactive: -0.232%
Cc1c(/C=N/O)c2ccccn2c1C(=O)c1ccc(F)cc1,"inconclusive: 20.6 µM [falling, partial curve, poor fit]",
COCCn1c(=S)[nH]c2cc(C(=O)N3CCN(Cc4ccccc4)CC3)ccc2c1=O,,inactive: -0.0393%
Cc1cc(C)c(CN2CCN(C(=O)Cn3cnc(C(=O)Nc4ccc(C)c(C)c4)n3)CC2)c(C)c1,"inconclusive: 18.4 µM [falling, single point]",
Cc1ccc([N+](=O)[O-])cc1NC(=O)c1ccc2c(c1)OCO2,,inactive: -10.5%
Cc1cc(-n2c(=O)c(C#N)cc3c(=O)n4cccc(C)c4nc32)no1,"inconclusive: 4.61 µM [activator, single point]",
Cc1cc(O)c(C(c2cccc(Cl)c2)N2CCN(c3ccccc3)CC2)c(=O)n1Cc1ccco1 (stereo unspecified),,inactive: 0.219%

# Source: PubChem BioAssay AID504648 (National Center for Advancing Translational Sciences (NCATS), 2011)
